The source of these data is patent US7544661 (NORTHWESTERN UNIVERSITY, dated 2009).

Results are given in words; binding and its absence hold for the method and conditions named. Binding can be weak; no strength is given.

The target of experiment [1] is laminin-5. Put plainly: phage display; listed as binding sequence for laminin-5; * denotes the strongest binders.
The target of experiment [2] is laminin-5. Put plainly: phage display; listed as binding sequence for laminin-5.

Consider RYHPHLH, for which the binding entry with laminin-5 [1] is “binds”.

With SKLNTKS, the binding entry with laminin-5 [2] was “binds”.

For the molecule GRYHHYLH, the binding result with laminin-5 [2] is listed as “binds”.

As for LRHKSLH, in the experiment with laminin-5 [2], the binding entry is recorded as “binds”.
